Test results reported in article PMC10628199, “Structural and functional investigations of syn-copalyl diphosphate synthase from Oryza sativa” (Communications Chemistry, 2023).
Changes are numbered by the printed parent chain. Names may count otherwise. No constants are given. Whether binding was seen depends on the method and setting. Some binding calls cover weakened binding; strength is not graded here.

B1: OsCyc1 Q291A (enzyme, UniProt Q0JF02 48-767)
chain: LISKSPPYPASEETREWEADGQHEHTDELRETTTTMIDGIRTALRSIGEGEISISAYDTSLVALLKRLDGGDGPQFPSTIDWIVQNQLPDGSWGDASFFMMGDRIMSTLACVVALKSWNIHTDKCERGLLFIQENMWRLAHEEEDWMLVGFEIALPSLLDMAKDLDLDIPYDEPALKAIYAERERKLAKIPRDVLHSMPTTLLHSLEGMVDLDWEKLLKLRCLDGSFHCSPASTATAFQQTGDAKCFEYLDGIVKKFNGGVPCIYPLDVYERLWAVDRLTRLGISRHFTSEIEDCLDYIFRNWTPDGLAHTKNCPVKDIDDTAMGFRLLRLYGYQVDPCVLKKFEKDGKFFCLHGESNPSSVTPMYNTYRASQLKFPGDDGVLGRAEVFCRSFLQDRRGSNRMKDKWAIAKDIPGEVEYAMDYPWKASLPRIETRLYLDQYGGSGDVWIGKVLHRMTLFCNDLYLKAAKADFSNFQKECRVELNGLRRWYLRSNLEKFGGTDPQTTLMTSYFLASANIFEANRAAERLGWARVALLADAVSSHFRRIGGPKNSTSNLEELISLVPFDDAYSGSLREAWKQWLMAWTAKESSQESIEGDTAILLVRAIEIFGGRHVLTGQRPDLWEYSQLEQLTSSICCKLSRRVLAQENGESTEKVEEIDQQVDLEMQELTRRVLQGCSAINRLTRETFLHVVKSFCYVAYCSPETIDSHIDKVIFQDVI
B2: OsCyc1, wild type, as used for cryo-EM (enzyme, Oryza sativa)
chain: B1 chain with A244Q
notes: syn-copalyl diphosphate synthase OsCyc1 (OsCPS4), Oryza sativa, wild type; the cryo-EM methods say only 'OsCyc1'); the deposited entries tell the construct; Probably the same protein as m1 or m2; also called WT OsCyc1; source: E. coli BL21(DE3), purified; in buffer B

Experiments:
[1] = target: OsCyc1 Q291A (Oryza sativa) (UniProt Q0JF02); assay: SEC-MALS; static light scattering (DAWN HELEOS II) on a Nanofilm SEC-150 column; protein 1.0 mg/mL in buffer A (20 mM Tris-HCl pH 8.0, 200 mM NaCl, 2 mM DTT); both purified
[2] = target: full-length OsCyc1 (syn-copalyl diphosphate synthase from Oryza sativa) (Oryza sativa) (UniProt Q0JF02); assay: SEC; Superdex 200 HR 10/300 gel filtration; peak near 11 mL for the wild-type proteins; both purified

Row | Binder | binding [1] | binding [2]
1 | B1 | binds | 
2 | B2 |  | binds
